In experiment [1] the target is T1, HA-tagged Rpc160 (S. cerevisiae) (UniProt P04051).
T1 sequence: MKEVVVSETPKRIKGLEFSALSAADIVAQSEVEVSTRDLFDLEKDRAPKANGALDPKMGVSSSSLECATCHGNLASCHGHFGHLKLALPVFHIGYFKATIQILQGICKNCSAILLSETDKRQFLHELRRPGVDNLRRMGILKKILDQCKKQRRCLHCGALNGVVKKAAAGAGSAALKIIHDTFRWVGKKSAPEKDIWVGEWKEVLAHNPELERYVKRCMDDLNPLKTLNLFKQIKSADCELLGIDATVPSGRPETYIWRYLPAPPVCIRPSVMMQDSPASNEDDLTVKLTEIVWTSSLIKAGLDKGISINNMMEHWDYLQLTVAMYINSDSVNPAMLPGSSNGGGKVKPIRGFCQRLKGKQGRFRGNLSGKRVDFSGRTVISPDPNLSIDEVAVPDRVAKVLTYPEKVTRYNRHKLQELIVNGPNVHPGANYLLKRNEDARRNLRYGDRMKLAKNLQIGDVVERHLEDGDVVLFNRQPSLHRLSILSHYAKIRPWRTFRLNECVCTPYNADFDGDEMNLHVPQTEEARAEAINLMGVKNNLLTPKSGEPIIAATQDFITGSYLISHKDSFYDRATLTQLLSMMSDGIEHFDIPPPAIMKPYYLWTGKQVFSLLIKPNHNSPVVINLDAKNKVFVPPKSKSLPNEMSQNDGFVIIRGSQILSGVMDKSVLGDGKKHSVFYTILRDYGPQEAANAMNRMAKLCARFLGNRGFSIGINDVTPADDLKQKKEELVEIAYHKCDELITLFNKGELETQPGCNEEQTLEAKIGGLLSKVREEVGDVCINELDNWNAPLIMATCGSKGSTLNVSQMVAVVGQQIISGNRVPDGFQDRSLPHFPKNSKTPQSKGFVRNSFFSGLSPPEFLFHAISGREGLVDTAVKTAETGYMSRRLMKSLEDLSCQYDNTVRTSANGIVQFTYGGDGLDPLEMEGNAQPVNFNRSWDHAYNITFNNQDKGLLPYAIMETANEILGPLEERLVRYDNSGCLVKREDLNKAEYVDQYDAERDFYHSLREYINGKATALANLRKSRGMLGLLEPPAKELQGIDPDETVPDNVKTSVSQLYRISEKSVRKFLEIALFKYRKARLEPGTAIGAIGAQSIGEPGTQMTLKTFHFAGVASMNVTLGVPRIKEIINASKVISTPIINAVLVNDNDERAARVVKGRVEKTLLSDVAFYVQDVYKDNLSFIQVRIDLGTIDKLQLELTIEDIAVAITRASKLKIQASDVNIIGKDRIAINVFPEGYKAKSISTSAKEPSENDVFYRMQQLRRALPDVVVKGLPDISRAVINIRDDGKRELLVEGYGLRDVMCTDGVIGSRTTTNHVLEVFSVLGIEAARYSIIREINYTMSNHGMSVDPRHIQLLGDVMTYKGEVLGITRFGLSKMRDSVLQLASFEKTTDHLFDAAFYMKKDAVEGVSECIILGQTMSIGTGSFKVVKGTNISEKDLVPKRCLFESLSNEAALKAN
The experiment in a line: co-IP; 50 ug total yeast protein extract, pre-cleared, anti-HA agarose beads 2 hrs at 4°, six washes with 0.15 M Tris-HCl pH 7.8, 50 mM KAc, 20% glycerol, 1 mM EDTA, 0.5 mM DTT, 0.5% Triton-X100; western blot. Background: Immunoblotting shows a protein as a band on a membrane.

Protein sequences, listed by entry. Tags and fused reporters are not part of them.
UniProt P16370: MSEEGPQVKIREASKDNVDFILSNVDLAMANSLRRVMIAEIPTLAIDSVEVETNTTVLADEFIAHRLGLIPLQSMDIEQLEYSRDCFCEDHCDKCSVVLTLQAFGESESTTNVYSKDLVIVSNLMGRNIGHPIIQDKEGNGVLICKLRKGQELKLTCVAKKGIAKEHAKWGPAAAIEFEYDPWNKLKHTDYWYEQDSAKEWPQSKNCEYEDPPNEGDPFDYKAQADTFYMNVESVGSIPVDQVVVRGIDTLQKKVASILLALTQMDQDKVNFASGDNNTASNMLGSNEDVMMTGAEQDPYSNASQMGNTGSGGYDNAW

Experiment [2] addresses T2, 13-myc-tagged Iwr1 (S. cerevisiae) (UniProt Q07532).
T2 sequence: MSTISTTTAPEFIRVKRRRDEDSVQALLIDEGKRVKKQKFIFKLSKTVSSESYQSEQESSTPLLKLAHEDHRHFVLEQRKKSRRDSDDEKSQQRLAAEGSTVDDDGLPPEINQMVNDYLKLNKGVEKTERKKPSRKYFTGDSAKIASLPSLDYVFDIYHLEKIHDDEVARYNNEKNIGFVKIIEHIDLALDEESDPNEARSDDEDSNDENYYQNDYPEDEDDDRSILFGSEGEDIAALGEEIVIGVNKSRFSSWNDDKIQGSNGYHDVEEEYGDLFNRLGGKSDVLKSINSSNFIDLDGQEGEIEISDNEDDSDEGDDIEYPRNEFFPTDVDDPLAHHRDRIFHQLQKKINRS
The experiment in a line: co-IP; reverse: immunoprecipitation of 13-myc-tagged Iwr1 (anti-MYC agarose beads) from yeast extract; data not shown.

The target in experiment [3] is T1, HA-tagged Rpc160 (S. cerevisiae). The experiment in a line: co-IP; 50 ug total yeast protein extract, pre-cleared, anti-HA agarose beads 2 hrs at 4°, six washes with 0.15 M Tris-HCl pH 7.8, 50 mM KAc, 20% glycerol, 1 mM EDTA, 0.5 mM DTT, 0.5% Triton-X100; western blot. The source holds these as a separate data set.

Like-named read-outs stand apart in the source and are kept apart here. Results are given in words; binding and its absence hold for the method and conditions named. In cells and extracts the contact can be indirect. Some results given as binding are weak or reduced against the parent protein; the word gives no strength. Tags and fused reporters may be left off the sequences shown.

In the case of Rpb3 (from UniProt P16370 1-318), the binding entry in experiment [1] is given as “no binding”.

B1: HA-tagged Rpc160 (protein, UniProt P04051 1-1460)
chain: MKEVVVSETPKRIKGLEFSALSAADIVAQSEVEVSTRDLFDLEKDRAPKANGALDPKMGVSSSSLECATCHGNLASCHGHFGHLKLALPVFHIGYFKATIQILQGICKNCSAILLSETDKRQFLHELRRPGVDNLRRMGILKKILDQCKKQRRCLHCGALNGVVKKAAAGAGSAALKIIHDTFRWVGKKSAPEKDIWVGEWKEVLAHNPELERYVKRCMDDLNPLKTLNLFKQIKSADCELLGIDATVPSGRPETYIWRYLPAPPVCIRPSVMMQDSPASNEDDLTVKLTEIVWTSSLIKAGLDKGISINNMMEHWDYLQLTVAMYINSDSVNPAMLPGSSNGGGKVKPIRGFCQRLKGKQGRFRGNLSGKRVDFSGRTVISPDPNLSIDEVAVPDRVAKVLTYPEKVTRYNRHKLQELIVNGPNVHPGANYLLKRNEDARRNLRYGDRMKLAKNLQIGDVVERHLEDGDVVLFNRQPSLHRLSILSHYAKIRPWRTFRLNECVCTPYNADFDGDEMNLHVPQTEEARAEAINLMGVKNNLLTPKSGEPIIAATQDFITGSYLISHKDSFYDRATLTQLLSMMSDGIEHFDIPPPAIMKPYYLWTGKQVFSLLIKPNHNSPVVINLDAKNKVFVPPKSKSLPNEMSQNDGFVIIRGSQILSGVMDKSVLGDGKKHSVFYTILRDYGPQEAANAMNRMAKLCARFLGNRGFSIGINDVTPADDLKQKKEELVEIAYHKCDELITLFNKGELETQPGCNEEQTLEAKIGGLLSKVREEVGDVCINELDNWNAPLIMATCGSKGSTLNVSQMVAVVGQQIISGNRVPDGFQDRSLPHFPKNSKTPQSKGFVRNSFFSGLSPPEFLFHAISGREGLVDTAVKTAETGYMSRRLMKSLEDLSCQYDNTVRTSANGIVQFTYGGDGLDPLEMEGNAQPVNFNRSWDHAYNITFNNQDKGLLPYAIMETANEILGPLEERLVRYDNSGCLVKREDLNKAEYVDQYDAERDFYHSLREYINGKATALANLRKSRGMLGLLEPPAKELQGIDPDETVPDNVKTSVSQLYRISEKSVRKFLEIALFKYRKARLEPGTAIGAIGAQSIGEPGTQMTLKTFHFAGVASMNVTLGVPRIKEIINASKVISTPIINAVLVNDNDERAARVVKGRVEKTLLSDVAFYVQDVYKDNLSFIQVRIDLGTIDKLQLELTIEDIAVAITRASKLKIQASDVNIIGKDRIAINVFPEGYKAKSISTSAKEPSENDVFYRMQQLRRALPDVVVKGLPDISRAVINIRDDGKRELLVEGYGLRDVMCTDGVIGSRTTTNHVLEVFSVLGIEAARYSIIREINYTMSNHGMSVDPRHIQLLGDVMTYKGEVLGITRFGLSKMRDSVLQLASFEKTTDHLFDAAFYMKKDAVEGVSECIILGQTMSIGTGSFKVVKGTNISEKDLVPKRCLFESLSNEAALKAN
Regarding B1, the binding entry in experiment [2] is “binds weakly”.

B2: 13-myc-tagged Iwr1 (protein, UniProt Q07532 1-353)
chain: MSTISTTTAPEFIRVKRRRDEDSVQALLIDEGKRVKKQKFIFKLSKTVSSESYQSEQESSTPLLKLAHEDHRHFVLEQRKKSRRDSDDEKSQQRLAAEGSTVDDDGLPPEINQMVNDYLKLNKGVEKTERKKPSRKYFTGDSAKIASLPSLDYVFDIYHLEKIHDDEVARYNNEKNIGFVKIIEHIDLALDEESDPNEARSDDEDSNDENYYQNDYPEDEDDDRSILFGSEGEDIAALGEEIVIGVNKSRFSSWNDDKIQGSNGYHDVEEEYGDLFNRLGGKSDVLKSINSSNFIDLDGQEGEIEISDNEDDSDEGDDIEYPRNEFFPTDVDDPLAHHRDRIFHQLQKKINRS
On to B2, for which the binding entry in experiment [3] is “binds weakly”.

The record behind these values is PMC3112208.
